The list shows a part of the results.
Legend:
Assay in all cases: log2 fold change, soluble protein after heating vs DMSO (PISA); higher = thermal stabilisation; K562 cells, 10 uM, 30 min; active = over 0.2 and 3.5 SD of the protein, either way, in both replicates (recomputed)
[1] = compound: CC1=C(C=C(C=C1)NC(=O)C2=CC(=CC=C2)C(C)(C)C#N)NC3=CC4=C(C=C3)N=CN(C4=O)C
Method in brief: (§1)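 K562 cells at 2×10^6 cells/mL were exposed to 10 μM compound for 30 min, then aliquots were heated for 3 min across 48°C-58°C, pooled, and extracted in PBS containing 0.5% NP-40 at 4°C. The supernatant after 21,000xg for 90 min was taken as soluble protein and measured by TMTpro 16plex LC-MS/MS with channel sums equalised. Thermal stability is reported relative to control samples, with values from duplicates. Fold changes are given on a log2 scale.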

The chains behind the UniProt entries cited, without tags or fusion partners. Where a name states a change or a piece, a line headed by the entry shows the natural chain unless it says otherwise.
UniProt Q9H3S4: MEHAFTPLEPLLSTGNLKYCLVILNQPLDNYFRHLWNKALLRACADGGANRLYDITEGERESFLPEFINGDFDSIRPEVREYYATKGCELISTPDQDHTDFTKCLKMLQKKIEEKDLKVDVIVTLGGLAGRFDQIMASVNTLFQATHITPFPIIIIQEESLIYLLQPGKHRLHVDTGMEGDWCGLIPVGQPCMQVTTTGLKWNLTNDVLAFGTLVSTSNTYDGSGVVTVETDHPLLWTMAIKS
UniProt Q5JTV8: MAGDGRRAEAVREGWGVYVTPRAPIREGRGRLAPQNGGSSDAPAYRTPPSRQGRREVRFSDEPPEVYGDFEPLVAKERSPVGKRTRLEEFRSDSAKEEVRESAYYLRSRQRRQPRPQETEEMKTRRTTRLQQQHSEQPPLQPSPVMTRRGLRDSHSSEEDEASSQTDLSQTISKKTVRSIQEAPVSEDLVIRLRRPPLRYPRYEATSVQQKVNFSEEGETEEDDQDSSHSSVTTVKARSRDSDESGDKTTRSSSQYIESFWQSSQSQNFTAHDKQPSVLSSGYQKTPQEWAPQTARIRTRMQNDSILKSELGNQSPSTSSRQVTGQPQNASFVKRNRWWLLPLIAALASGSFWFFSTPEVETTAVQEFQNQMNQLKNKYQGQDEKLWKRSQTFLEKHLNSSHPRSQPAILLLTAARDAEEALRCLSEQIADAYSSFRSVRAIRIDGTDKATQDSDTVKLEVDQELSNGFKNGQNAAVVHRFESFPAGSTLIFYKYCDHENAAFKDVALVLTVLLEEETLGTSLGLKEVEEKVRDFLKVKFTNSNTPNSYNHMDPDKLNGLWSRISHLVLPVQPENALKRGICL
UniProt Q8TBZ6: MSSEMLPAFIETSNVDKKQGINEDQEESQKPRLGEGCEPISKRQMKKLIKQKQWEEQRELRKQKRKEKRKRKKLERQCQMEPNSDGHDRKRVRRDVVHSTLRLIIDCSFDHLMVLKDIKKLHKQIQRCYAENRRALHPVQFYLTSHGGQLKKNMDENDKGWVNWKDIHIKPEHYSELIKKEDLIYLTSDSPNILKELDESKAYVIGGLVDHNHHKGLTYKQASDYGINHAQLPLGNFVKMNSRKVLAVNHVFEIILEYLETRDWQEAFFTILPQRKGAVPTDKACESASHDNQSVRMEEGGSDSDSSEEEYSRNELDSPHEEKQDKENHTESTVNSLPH
UniProt Q9NXH9: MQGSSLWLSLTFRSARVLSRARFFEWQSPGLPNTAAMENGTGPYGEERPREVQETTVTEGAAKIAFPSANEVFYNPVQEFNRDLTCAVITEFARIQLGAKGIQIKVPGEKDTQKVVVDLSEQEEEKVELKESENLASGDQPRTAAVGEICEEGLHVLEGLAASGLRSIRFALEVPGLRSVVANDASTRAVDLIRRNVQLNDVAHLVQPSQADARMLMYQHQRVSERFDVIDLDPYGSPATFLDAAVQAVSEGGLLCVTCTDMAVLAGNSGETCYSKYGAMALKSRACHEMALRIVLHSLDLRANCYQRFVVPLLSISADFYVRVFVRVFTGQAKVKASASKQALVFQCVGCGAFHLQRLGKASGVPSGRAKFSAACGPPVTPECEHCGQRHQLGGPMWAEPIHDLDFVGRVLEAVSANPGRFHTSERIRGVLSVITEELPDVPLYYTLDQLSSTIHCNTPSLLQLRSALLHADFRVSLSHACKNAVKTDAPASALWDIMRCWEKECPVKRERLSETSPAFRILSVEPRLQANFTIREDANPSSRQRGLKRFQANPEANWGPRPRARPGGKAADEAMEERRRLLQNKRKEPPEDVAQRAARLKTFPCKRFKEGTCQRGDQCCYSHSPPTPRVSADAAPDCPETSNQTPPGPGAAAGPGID
UniProt Q96FX7: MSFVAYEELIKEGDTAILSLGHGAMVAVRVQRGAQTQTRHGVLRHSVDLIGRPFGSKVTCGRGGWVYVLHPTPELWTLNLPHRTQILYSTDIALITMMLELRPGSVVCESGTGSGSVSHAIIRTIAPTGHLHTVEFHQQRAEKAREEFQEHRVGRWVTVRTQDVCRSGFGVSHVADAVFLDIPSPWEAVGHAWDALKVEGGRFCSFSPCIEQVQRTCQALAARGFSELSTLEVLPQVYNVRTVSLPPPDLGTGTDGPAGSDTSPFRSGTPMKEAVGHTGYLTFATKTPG
UniProt Q9UL33, whole entry, looked up: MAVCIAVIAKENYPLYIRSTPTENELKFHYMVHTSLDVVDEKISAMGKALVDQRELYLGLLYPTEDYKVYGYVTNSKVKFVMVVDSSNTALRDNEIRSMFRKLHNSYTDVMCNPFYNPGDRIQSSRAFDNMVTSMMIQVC
UniProt Q86TN4: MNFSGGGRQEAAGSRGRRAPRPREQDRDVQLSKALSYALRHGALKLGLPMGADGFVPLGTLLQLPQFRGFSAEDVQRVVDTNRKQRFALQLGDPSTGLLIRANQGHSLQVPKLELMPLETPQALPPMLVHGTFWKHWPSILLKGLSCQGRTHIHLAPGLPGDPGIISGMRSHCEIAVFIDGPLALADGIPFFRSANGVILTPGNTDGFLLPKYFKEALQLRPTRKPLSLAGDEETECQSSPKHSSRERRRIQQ
UniProt O43617, whole entry, looked up: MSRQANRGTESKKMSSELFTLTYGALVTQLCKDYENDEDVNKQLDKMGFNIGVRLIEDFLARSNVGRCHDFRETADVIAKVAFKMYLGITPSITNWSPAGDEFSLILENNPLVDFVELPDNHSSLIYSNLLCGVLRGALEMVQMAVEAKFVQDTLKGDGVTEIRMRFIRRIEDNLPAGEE
UniProt Q9BUZ4: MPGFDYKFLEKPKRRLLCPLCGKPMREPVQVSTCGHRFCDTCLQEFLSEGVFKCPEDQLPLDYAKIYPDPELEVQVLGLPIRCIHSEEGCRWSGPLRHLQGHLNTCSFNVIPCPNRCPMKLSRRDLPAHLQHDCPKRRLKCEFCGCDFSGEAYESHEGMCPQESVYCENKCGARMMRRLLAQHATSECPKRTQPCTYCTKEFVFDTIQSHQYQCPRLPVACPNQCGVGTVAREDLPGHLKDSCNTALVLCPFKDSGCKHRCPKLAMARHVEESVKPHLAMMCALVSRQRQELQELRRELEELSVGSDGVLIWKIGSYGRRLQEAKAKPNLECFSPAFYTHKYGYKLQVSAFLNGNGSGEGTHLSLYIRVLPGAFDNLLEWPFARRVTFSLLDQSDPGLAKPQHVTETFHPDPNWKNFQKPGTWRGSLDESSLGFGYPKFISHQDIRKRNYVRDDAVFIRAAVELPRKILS
UniProt Q9BRZ2: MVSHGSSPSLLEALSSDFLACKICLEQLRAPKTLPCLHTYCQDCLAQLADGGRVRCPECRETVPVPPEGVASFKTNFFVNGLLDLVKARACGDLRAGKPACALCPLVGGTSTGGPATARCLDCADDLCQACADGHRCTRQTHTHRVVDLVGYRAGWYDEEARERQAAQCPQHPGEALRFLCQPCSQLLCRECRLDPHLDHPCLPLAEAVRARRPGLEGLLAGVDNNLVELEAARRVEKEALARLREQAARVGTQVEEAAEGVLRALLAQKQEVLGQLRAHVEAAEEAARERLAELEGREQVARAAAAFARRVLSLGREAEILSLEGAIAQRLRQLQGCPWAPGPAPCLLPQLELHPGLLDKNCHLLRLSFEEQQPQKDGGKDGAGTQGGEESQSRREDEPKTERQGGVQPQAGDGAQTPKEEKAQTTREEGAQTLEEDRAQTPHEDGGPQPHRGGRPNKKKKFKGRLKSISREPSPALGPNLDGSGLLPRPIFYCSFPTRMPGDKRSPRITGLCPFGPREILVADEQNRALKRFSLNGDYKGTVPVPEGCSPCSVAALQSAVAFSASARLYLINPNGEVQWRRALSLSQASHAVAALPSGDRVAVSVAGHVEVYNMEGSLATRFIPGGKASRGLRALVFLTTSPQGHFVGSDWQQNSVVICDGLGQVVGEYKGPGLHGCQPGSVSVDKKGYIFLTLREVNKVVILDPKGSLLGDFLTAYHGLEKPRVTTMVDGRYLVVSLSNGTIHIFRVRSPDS
UniProt O75674: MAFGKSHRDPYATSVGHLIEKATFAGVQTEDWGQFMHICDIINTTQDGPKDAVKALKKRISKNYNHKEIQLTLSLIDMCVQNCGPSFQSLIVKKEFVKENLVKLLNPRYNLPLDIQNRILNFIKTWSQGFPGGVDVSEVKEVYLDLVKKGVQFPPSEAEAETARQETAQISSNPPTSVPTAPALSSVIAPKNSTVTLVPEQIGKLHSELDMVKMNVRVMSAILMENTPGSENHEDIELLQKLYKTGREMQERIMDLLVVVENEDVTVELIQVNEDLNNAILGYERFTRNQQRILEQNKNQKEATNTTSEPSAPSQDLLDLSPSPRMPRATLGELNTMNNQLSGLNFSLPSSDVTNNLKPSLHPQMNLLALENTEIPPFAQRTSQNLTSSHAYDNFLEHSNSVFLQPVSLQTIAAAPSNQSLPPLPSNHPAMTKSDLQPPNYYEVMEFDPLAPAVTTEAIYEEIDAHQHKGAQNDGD
UniProt Q9BW30: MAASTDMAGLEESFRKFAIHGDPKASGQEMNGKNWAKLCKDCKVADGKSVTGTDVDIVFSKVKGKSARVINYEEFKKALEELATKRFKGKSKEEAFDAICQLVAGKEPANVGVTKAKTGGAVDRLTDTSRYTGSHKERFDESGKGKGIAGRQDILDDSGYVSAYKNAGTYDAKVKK
UniProt Q9Y5R8, whole entry, looked up: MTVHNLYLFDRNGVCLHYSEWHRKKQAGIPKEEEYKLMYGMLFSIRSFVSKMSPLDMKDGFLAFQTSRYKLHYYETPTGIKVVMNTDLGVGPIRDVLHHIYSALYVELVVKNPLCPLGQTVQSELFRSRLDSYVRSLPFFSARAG
UniProt Q9UPQ9, whole entry, looked up: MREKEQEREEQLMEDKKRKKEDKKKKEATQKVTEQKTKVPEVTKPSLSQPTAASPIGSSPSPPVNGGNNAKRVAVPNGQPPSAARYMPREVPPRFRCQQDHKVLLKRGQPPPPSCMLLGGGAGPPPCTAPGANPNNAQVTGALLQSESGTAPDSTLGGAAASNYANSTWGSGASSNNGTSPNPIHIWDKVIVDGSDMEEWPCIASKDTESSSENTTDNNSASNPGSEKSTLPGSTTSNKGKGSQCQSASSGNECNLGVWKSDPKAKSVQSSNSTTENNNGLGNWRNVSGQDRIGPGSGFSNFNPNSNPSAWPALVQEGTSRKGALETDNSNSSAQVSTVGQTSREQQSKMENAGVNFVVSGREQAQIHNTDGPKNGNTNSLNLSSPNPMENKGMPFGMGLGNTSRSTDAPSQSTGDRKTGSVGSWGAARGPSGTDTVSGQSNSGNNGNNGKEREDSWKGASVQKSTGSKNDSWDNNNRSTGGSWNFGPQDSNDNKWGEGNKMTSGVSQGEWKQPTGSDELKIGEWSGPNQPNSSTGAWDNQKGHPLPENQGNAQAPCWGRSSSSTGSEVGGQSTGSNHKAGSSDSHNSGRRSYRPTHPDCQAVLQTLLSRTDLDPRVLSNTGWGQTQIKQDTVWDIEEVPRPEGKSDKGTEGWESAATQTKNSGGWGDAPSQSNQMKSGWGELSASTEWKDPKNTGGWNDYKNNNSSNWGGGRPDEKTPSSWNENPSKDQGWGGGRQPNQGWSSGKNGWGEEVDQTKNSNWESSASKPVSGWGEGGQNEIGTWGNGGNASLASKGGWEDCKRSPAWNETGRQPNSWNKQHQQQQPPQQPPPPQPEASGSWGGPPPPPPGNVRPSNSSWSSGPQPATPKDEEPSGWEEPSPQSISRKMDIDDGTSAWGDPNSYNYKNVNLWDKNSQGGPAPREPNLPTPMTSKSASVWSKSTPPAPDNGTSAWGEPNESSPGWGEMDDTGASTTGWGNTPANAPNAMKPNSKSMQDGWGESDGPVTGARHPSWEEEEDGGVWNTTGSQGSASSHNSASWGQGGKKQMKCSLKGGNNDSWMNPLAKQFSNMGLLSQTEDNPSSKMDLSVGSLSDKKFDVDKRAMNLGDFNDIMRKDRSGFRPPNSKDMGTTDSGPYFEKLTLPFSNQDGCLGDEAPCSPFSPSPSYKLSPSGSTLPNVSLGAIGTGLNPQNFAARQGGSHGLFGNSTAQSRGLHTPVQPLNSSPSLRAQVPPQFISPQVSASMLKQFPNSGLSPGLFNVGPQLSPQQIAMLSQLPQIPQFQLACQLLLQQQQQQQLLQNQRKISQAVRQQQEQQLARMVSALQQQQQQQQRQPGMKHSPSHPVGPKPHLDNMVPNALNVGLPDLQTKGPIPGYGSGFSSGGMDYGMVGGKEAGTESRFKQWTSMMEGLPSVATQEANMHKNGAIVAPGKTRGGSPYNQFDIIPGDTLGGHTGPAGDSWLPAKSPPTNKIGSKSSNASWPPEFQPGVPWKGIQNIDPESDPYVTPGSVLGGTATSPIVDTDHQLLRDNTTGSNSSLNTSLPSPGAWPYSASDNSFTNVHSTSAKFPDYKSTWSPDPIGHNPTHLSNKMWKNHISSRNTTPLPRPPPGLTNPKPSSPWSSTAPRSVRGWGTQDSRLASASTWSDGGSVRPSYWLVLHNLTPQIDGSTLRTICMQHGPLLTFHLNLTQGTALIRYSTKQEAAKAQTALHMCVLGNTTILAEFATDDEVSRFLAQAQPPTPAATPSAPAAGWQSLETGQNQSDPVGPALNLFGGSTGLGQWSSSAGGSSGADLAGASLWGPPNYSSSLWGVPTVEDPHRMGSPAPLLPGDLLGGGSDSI

[2] = compound: CC1=C(C=C(C=C1)NC(=O)C2=CC(=CC=C2)N(C)C)NC(=O)C3=CC=C(C=C3)O
Method in brief: as §1

[3] = compound: CC1=CC=C(C=C1)SC2=C3C=C(SC3=CN=C2)C(=O)N
Method in brief: as §1

[4] = compound: CC1=NC(=CC=C1)C2=C(N=C(N2)C(C)(C)C)C3=CC4=NC=CN=C4C=C3
Method in brief: as §1

[5] = compound: CCCCN(Cc1ccc(C(=O)NO)cc1)C(=O)Nc1ccccc1 [Nexturastat A]
Method in brief: as §1

[6] = compound: CCCS(=O)(=O)Nc1ccc(F)c(C(=O)c2c[nH]c3ncc(-c4ccc(Cl)cc4)cc23)c1F [vemurafenib]
Method in brief: as §1

[7] = compound: CCCS(=O)(=O)Nc1ccc(F)c(C(=O)c2c[nH]c3ncc(Cl)cc23)c1F
Method in brief: as §1

[8] = compound: CCCc1cc(C)[nH]c(=O)c1CNC(=O)c1cc(-c2ccnc(N3CCN(C)CC3)c2)cc2c1cnn2C(C)C
Method in brief: as §1

[9] = compound: CCN(CC)Cc1ccc2cc(COC(=O)Nc3ccc(C(=O)NO)cc3)ccc2c1 [givinostat]
Method in brief: as §1

[10] = compound: CCN(CCCOc1ccc2c(Nc3cc(CC(=O)Nc4cccc(F)c4)[nH]n3)ncnc2c1)CCOP(=O)(O)O [barasertib]
Method in brief: as §1

Measured: log2 fold change

TPK1 (UniProt Q9H3S4)
inactive: [1] -0.048 | [2] 0.143 | [3] -0.03 | [4] -0.012 | [5] -0.07 | [6] -0.154 | [7] -0.058 | [8] -0.013 | [9] -0.488 | [10] -0.099

TOR1AIP1 isoform 3 (UniProt Q5JTV8)
inactive: [1] -0.012 | [2] -0.011 | [3] 0.016 | [4] 0.009 | [5] -0.006 | [6] 0.011 | [7] -0.03 | [8] -0.003 | [9] -0.03 | [10] -0.036

TRAM1 (UniProt Q15629)
inactive: [1] 0.024 | [2] -0.063 | [3] -0.006 | [4] 0.048 | [5] 0.005 | [6] 0.027 | [7] 0.02 | [8] -0.101 | [9] 0.028 | [10] 0.015

TRMT10A (UniProt Q8TBZ6)
inactive: [1] 0.006 | [2] -0.004 | [3] 0.063 | [4] 0.031 | [5] -0.079 | [6] 0.014 | [7] -0.017 | [8] -0.011 | [9] -0.004 | [10] -0.019

TPT1 (UniProt P13693)
inactive: [1] 0.095 | [2] -0.033 | [3] 0.004 | [4] 0.032 | [5] -0.025 | [6] 0.019 | [7] 0.011 | [8] 0.117 | [9] 0.002 | [10] -0.016

TRMT1 (UniProt Q9NXH9)
inactive: [1] 0.003 | [2] 0.001 | [3] -0.001 | [4] 0.017 | [5] -0.083 | [6] -0.007 | [7] 0.023 | [8] -0.04 | [9] 0.01 | [10] 0.003

TRMT61A (UniProt Q96FX7)
inactive: [1] 0 | [2] 0.056 | [3] -0.013 | [4] -0.083 | [5] 0.204 | [6] -0.119 | [7] -0.009 | [8] 0.114 | [9] 0.038 | [10] -0.091

TPCN1 isoform 3 (UniProt Q9ULQ1)
inactive: [1] 0.179 | [2] 0.053 | [3] -0.113 | [4] 0.063 | [5] 0.004 | [6] -0.097 | [7] 0.026 | [8] -0.265 | [9] 0.002 | [10] 0.061

TRAPPC2L (UniProt Q9UL33)
inactive: [1] 0 | [2] -0.135 | [3] 0.133 | [4] 0.045 | [5] 0.003 | [6] 0.076 | [7] 0.11 | [8] 0.055 | [9] -0.123 | [10] 0.05

TRPT1 isoform 4 (UniProt Q86TN4)
active: [1] -1.08
inactive: [2] 0.136 | [4] -0.008 | [8] 0.029 | [9] 0.179

TPR (UniProt P12270)
inactive: [1] -0.001 | [2] 0.023 | [3] -0.069 | [4] -0.047 | [5] -0.048 | [6] 0.031 | [7] 0.012 | [8] 0.003 | [9] -0.08 | [10] 0

TRIM23 (UniProt P36406)
inactive: [1] -0.025 | [2] -0.008 | [4] 0.036 | [6] -0.022 | [8] 0.055 | [9] 0.027 | [10] 0.021

TRAFD1 (UniProt O14545)
inactive: [1] 0.03 | [2] 0.037 | [3] 0.034 | [4] 0.01 | [5] 0.012 | [6] 0.014 | [7] 0.017 | [8] 0.023 | [9] -0.058 | [10] -0.028

TOP2B (UniProt Q02880)
inactive: [1] 0.024 | [2] 0.023 | [3] -0.066 | [4] -0.102 | [5] 0.154 | [6] -0.092 | [7] 0.011 | [8] 0.303 | [9] 0.172 | [10] -0.205

TRIP4 (UniProt Q15650)
inactive: [1] -0.013 | [2] -0.032 | [3] 0.034 | [4] -0.008 | [5] 0.147 | [6] 0.011 | [7] -0.037 | [8] 0.059 | [9] -0.002 | [10] 0.027

TRAPPC3 (UniProt O43617)
active: [5] -0.218
inactive: [1] 0 | [2] 0.023 | [3] 0.061 | [4] 0.042 | [6] 0.023 | [7] 0.01 | [8] -0.006 | [9] -0.051 | [10] 0.025

TOLLIP (UniProt Q9H0E2)
inactive: [1] 0.033 | [2] 0.006 | [3] 0.007 | [4] 0.042 | [5] -0.054 | [6] 0.116 | [7] 0.033 | [8] 0.016 | [9] -0.062 | [10] -0.01

TRIM38 (UniProt O00635)
inactive: [1] -0.248 | [3] -0.072 | [4] -0.286 | [5] 0.037 | [6] -0.063 | [7] -0.233 | [8] 0.019 | [9] -0.125 | [10] 0.052

TRIM44 (UniProt Q96DX7)
inactive: [1] 0.059 | [2] -0.055 | [3] 0.06 | [4] 0.015 | [6] -0.005 | [7] 0.042 | [8] 0 | [9] -0.026 | [10] -0.035

TNIP1 (UniProt Q15025)
inactive: [1] -0.083 | [2] -0.04 | [3] -0.115 | [5] -0.081 | [7] 0.12 | [8] 0.213 | [9] 0.193 | [10] 0.051

TRAF4 (UniProt Q9BUZ4)
inactive: [1] 0.023 | [2] -0.025 | [3] 0 | [4] 0.002 | [5] 0.151 | [6] -0.064 | [7] 0.064 | [8] 0.038 | [9] 0.017 | [10] 0.03

TOMM70 (UniProt O94826)
inactive: [1] 0.023 | [2] -0.037 | [3] -0.003 | [4] 0.033 | [5] -0.031 | [6] 0.029 | [7] 0.056 | [8] -0.006 | [9] 0.019 | [10] 0.029

TRAPPC4 (UniProt Q9Y296)
inactive: [1] 0.001 | [2] 0.013 | [3] -0.029 | [4] -0.004 | [5] -0.06 | [6] -0.003 | [7] -0.033 | [8] -0.01 | [9] -0.027 | [10] 0.017

TRIM56 (UniProt Q9BRZ2)
inactive: [1] -0.04 | [2] -0.103 | [3] -0.163 | [4] -0.136 | [5] 0.054 | [7] -0.06 | [8] 0.009 | [9] -0.005 | [10] -0.163

TRIQK (UniProt Q629K1)
inactive: [1] -0.022 | [2] -0.007 | [4] -0.173 | [5] -0.028 | [8] 0.014 | [10] -0.041

TSC2 (UniProt P49815)
inactive: [1] -0.09 | [2] 0.004 | [3] -0.076 | [4] -0.139 | [5] 0.173 | [7] 0.098 | [8] -0.036 | [9] -0.043 | [10] -0.015

TOM1L1 (UniProt O75674)
inactive: [1] -0.101 | [2] 0.005 | [3] 0.057 | [4] 0.019 | [5] -0.038 | [6] 0.102 | [7] 0.015 | [8] -0.07 | [9] 0.024 | [10] 0.03

TRMT112 (UniProt Q9UI30)
inactive: [1] 0.014 | [2] -0.063 | [3] 0.101 | [4] -0.025 | [5] -0.023 | [6] 0.052 | [7] 0.072 | [8] 0.014 | [9] -0.154 | [10] 0.058

TPPP3 (UniProt Q9BW30)
inactive: [1] -0.024 | [2] -0.067 | [4] 0.021 | [5] 0.062

Two consecutive entries from above, quoted:
TRAPPC4 (UniProt Q9Y296)
inactive: [1] 0.001 | [2] 0.013 | [3] -0.029 | [4] -0.004 | [5] -0.06 | [6] -0.003 | [7] -0.033 | [8] -0.01 | [9] -0.027 | [10] 0.017

TRIM56 (UniProt Q9BRZ2)
inactive: [1] -0.04 | [2] -0.103 | [3] -0.163 | [4] -0.136 | [5] 0.054 | [7] -0.06 | [8] 0.009 | [9] -0.005 | [10] -0.163

(listing goes on)

TRAPPC1 (UniProt Q9Y5R8)
inactive: [1] -0.078 | [2] -0.018 | [3] 0.009 | [4] -0.09 | [6] -0.054 | [7] -0.071 | [8] -0.002 | [9] 0.004 | [10] 0.125

TNRC6B (UniProt Q9UPQ9)
inactive: [1] -0.509 | [3] -0.059 | [4] -0.112 | [5] 0.118 | [7] -0.02 | [9] -0.055 | [10] -0.143

TRAF7 (UniProt Q6Q0C0)
inactive: [1] 0.038 | [3] 0.052 | [4] -0.194 | [5] 0.063 | [6] -0.088 | [7] 0.066 | [8] 0.104 | [9] 0.016 | [10] 0.153

Source: the supplement of paper PMC10849652
